{"source": "patent KR20230117367A", "about": "(dated 2023)", "binders": {"B1": {"name": "chimeric antigen receptor BCMA-CA8 (other)", "chain": "DIQLTQTTSSLSASLGDRVTISCSASQDISNYLNWYQQKPDGTVELVIYYTSNLHSGVPSRFSGSGSGTDYSLTIGYLEPEDVATYYCQQYRKLPWTFGGGSKLEIKRGGGGSGGGGSGGGGSEVQLQQSGAVLARPGASVKMSCKGSGYTFTNYWMHWVKQRPGQGLEWIGATYRGHSDTYYNQKFKGKAKLTAVTSTSTAYMELSSLTNEDSAVYYCTRGAIYNGYDVLDNWGQGTLVTVSSFVPVFLPAKPTTTPAPRPPTPAPTIASQPLSLRPEACRPAAGGAVHTRGLDFACDIYIWAPLAGTCGVLLLSLVITLYCKRGRKKLLYIFKQPFMRPVQTTQEEDGCSCRFPEEEEGGCELRVKFSRSADAPAYQQGQNQLYNELNLGRREEYDVLDKRRGRDPEMGGKPRRKNPQEGLYNELQKDKMAEAYSEIGMKGERRRGKGHDGLYQGLSTATKDTYDALHMQALPPR", "notes": "CAR on T cells; also called CART-BCMA-CA8"}}, "target": "T1, recombinant human BCMA protein Fc fusion (human, UniProt Q02223 1-54)", "T1 construct": "Staining reagent for CAR on T cells; also called BCMA-Fc fusion protein; 재조합 인간 BCMA 단백질의 Fc 단편; not shown: Fc part", "T1 sequence (looked up)": "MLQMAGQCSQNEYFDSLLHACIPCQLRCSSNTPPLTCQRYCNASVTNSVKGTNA", "assay": "flow cytometry of CAR-T cells stained with recombinant human BCMA-Fc (days 7, 21, 29)"}
{"binder": "B1", "values": [{"measurement": "binding result", "value": "binds"}]}
